The other results are listed elsewhere or left out. Further columns of the screen follow, without active or inactive calls. The list favours compounds with an active or inconclusive main result. The note in brackets gives the kind of curve behind each potency; many fits are weak.
Test: qHTS Assay for Lipid Storage Modulators in Drosophila S3 Cells;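 on cell number change: cells counted by Cell Tracker Red CMTPX staining in the red channel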
Settings: BODIPY lipid droplet fluorescence, 18-24 h; for cell number change: measured here: cell count max response, cells fed with added oleic acid
Procedure, shortened: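 Drosophila S3 cells loaded with oleic acid (400 uM, as added) and compounds at several concentrations; lipid droplets imaged by 488-nm laser-scanning cytometry, 500–530 nm intensity and object ratio to cell channel. Percent activity normalized to 20 uM Triacsin C.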

[1] = measured here: cell number channel AC50, cells fed with added oleic acid
[2] = measured here: lipid fluorescence (Fed channel) AC50, cells fed with added oleic acid

With `OCC1(Cc2cccc(C(F)(F)F)c2)CCN(Cc2cc3ccccc3o2)CC1` the cell number change was -44.5%, the AC50 [1] was 29.1 µM [falling, single point] and the AC50 [2] was 29.1 µM [falling, single point].

In the case of `C[C@H](NC(=O)[C@@H]1Cc2ccccc2CN1C(=O)OC(C)(C)C)C(=O)NC1CCCC1`, the cell number change is reported as -17.9% and the AC50 [2] is reported as 6.51 µM [falling, single point].

In the case of `COc1cc(NC(=O)c2ccco2)c(OC)cc1NC(=O)CSc1nnc(-c2cccs2)n1C`, the cell number change is reported as -28% and the AC50 [2] is reported as 0.92 µM [rising, partial curve].

With `CNS(=O)(=O)Cc1ccc2[nH]cc(CCN(C)C)c2c1` the cell number change was -12.6% and the AC50 [2] was 0.58 µM [falling, full curve, poor fit].

With `CN1C(=O)c2c(sc3c2CCCC3)NC1c1ccccc1O` (stereo not given) the cell number change was 145% and the AC50 [1] was 29.1 µM [rising, single point].

In the case of `CCOc1cc(-c2cc(-c3ccc(N)cc3)nc(N)c2C#N)ccc1O`, the cell number change is reported as -28.1% and the AC50 [2] is reported as 0.13 µM [falling, full curve, poor fit].

For `COc1ccc(C2c3[nH]c4ccccc4c3C[C@H]3C(=O)N(CCCO)CC(=O)N23)c(OC)c1` (stereo not given in full), the cell number change was 9.72% and the AC50 [2] was 29.1 µM [falling, single point].

For `CCOC(=O)NN1C(=O)c2ccccc2NC1c1cccs1` (stereo not given), the cell number change was -36.2%, the AC50 [1] was 29.1 µM [falling, single point] and the AC50 [2] was 29.1 µM [falling, single point].

In the case of `CSCCC(NC(=O)c1ccc([N+](=O)[O-])cc1Cl)C(=O)OCC(=O)C12CC3CC(CC(C3)C1)C2` (stereo not given), the AC50 [1] is reported as 0.731 µM [rising, full curve] and the AC50 [2] is reported as 0.92 µM [rising, full curve].

For `O=C(CCSc1ccc(Cl)cc1)c1ccco1`, the cell number change was -31.1%, the AC50 [1] was 32.6 µM [falling, single point] and the AC50 [2] was 29.1 µM [falling, single point].

With `NC(=S)N=Nc1c(O)n(CCCl)c2ccc(Br)cc12` the AC50 [2] was 4.11 µM [rising, partial curve, poor fit].

For `COc1cccc(/C=C2\C(=O)N(c3cccc(C)c3)C(=O)c3ccccc32)c1`, the cell number change was -19%, the AC50 [1] was 4.61 µM [rising, single point] and the AC50 [2] was 6.51 µM [falling, partial curve].

In the case of `O=C(NCC1COc2ccccc2O1)c1ccc(Br)s1` (stereo not given), the cell number change is reported as -35.7% and the AC50 [1] is reported as 2.59 µM [falling, full curve].

For `CCC(C)NC(=O)c1c(-c2cc(Cl)c(OC)c(Cl)c2)noc1C` (stereo not given), the cell number change was 14.7% and the AC50 [2] was 8.2 µM [rising, partial curve].

In the case of `COc1cc2c(cc1OC)C(C)N(C(=O)Nc1cc(C)cc(C)c1)CC2` (stereo not given), the cell number change is reported as -57.2%, the AC50 [1] is reported as 7.31 µM [falling, partial curve] and the AC50 [2] is reported as 6.51 µM [falling, single point].

For `Cc1cccc(NS(=O)(=O)c2ccc(-c3cnc(C4CC4)o3)cc2)c1`, the cell number change was -41.8% and the AC50 [1] was 29.1 µM [falling, single point].

For `COc1cccc(NC(=O)c2cc(C(=O)Nc3cccc(OC)c3)n(C)n2)c1`, the AC50 [1] was 3.26 µM [falling, partial curve] and the AC50 [2] was 0.231 µM [falling, full curve].

In the case of `COC(=O)c1ccccc1NC(=O)c1cc2n(n1)C(C(F)F)CC(C(F)F)N2` (stereo not given), the cell number change is reported as -20.1% and the AC50 [2] is reported as 0.291 µM [rising, partial curve].

In the case of `Cc1ccccc1NC(=S)NCc1ccc(F)cc1`, the cell number change is reported as -13.2% and the AC50 [2] is reported as 18.4 µM [falling, single point].

For `Cc1nc(NC(=O)CSC2=NCCS2)sc1C(=O)N(C)C`, the cell number change was 34.6%, the AC50 [1] was 20.6 µM [rising, partial curve, poor fit] and the AC50 [2] was 29.1 µM [rising, single point].

In the case of `Cc1ccc(OCC(=O)Nc2ccc(-c3nc4ncccc4o3)cc2)c(C)c1`, the cell number change is reported as -130%, the AC50 [1] is reported as 25.9 µM [falling, single point] and the AC50 [2] is reported as 29.1 µM [falling, single point].

`O=C(C1CCN(C2CC(=O)N(c3ccc(F)cc3)C2=O)CC1)N1CCOCC1` (stereo not given) showed a cell number change of -1.17%.

With `COc1cccc(N(C(=O)c2snc(C(N)=O)c2N)C(C(=O)NCC2CCCO2)c2c[nH]c3ccccc23)c1` (stereo not given) the cell number change was -22.2% and the AC50 [2] was 6.51 µM [falling, single point].

For `CCOCCCNC(=O)c1ccc2c(c1)ncn2-c1cccc(C)c1`, the cell number change was 36.2%, the AC50 [1] was 4.61 µM [rising, partial curve] and the AC50 [2] was 23.1 µM [rising, single point].

With `COc1cccc2cc(S(=O)(=O)c3ccc(C)cc3)/c(=N/NS(=O)(=O)c3ccc(C)cc3)oc12` the AC50 [1] was 0.082 µM [rising, full curve, poor fit] and the AC50 [2] was 0.146 µM [rising, full curve, poor fit].

In the case of `COc1ccc(NS(=O)(=O)c2ccc3c(c2)CCC(=O)N3)c(OC)c1`, the cell number change is reported as 3.49% and the AC50 [2] is reported as 29.1 µM [rising, single point].

With `CCC(=O)Nc1ccc2c(c1)nc1n2CCSC1` the cell number change was -49.4%, the AC50 [1] was 18.4 µM [falling, partial curve] and the AC50 [2] was 18.4 µM [rising, single point].

For `O=C(COc1ccccc1)Nc1ccc(-c2ccc(N3CCOCC3)nn2)cc1`, the cell number change was 2.51% and the AC50 [2] was 1.84 µM [rising, partial curve].

With `O=C(COc1ccc2ccccc2c1)N1CCN(C(=O)c2ccc([N+](=O)[O-])cc2)CC1` the cell number change was 53.1%, the AC50 [1] was 29.1 µM [rising, single point] and the AC50 [2] was 29.1 µM [rising, partial curve, poor fit].

With `Cc1cccc(C)c1NC(=O)CNC(=O)c1ccc(N2CCCC2=O)cc1` the cell number change was -11.9% and the AC50 [2] was 6.51 µM [falling, single point].

With `CCCc1c(C)nc2ccccc2c1SCCC#N` the cell number change was -9.81% and the AC50 [1] was 5.8 µM [rising, single point].

In the case of `O=C(CSc1nnnn1C1CCCC1)N1CCCc2ccccc21`, the cell number change is reported as 27.7% and the AC50 [2] is reported as 1.16 µM [rising, full curve].

In the case of `O=C(Nc1ccc(-c2nnc(-c3ccccc3)o2)cc1)C1CCCO1` (stereo not given), the cell number change is reported as 33.9%, the AC50 [1] is reported as 23.1 µM [rising, single point] and the AC50 [2] is reported as 0.116 µM [rising, full curve, poor fit].
